A: 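Enzyme assay of tryptophanyl-tRNA synthetase; the read-out is not stated. Target: Tryptophan-tRNA ligase, Mycobacterium tuberculosis (UniProt P9WFT3). Tested at 10 µM. Direction is not recorded; retested compounds ran higher, which suggests that high means inhibition. Size under these conditions: about 65,000 compounds, about 64 of them at 50% or above in at least one test.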
B: 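Enzyme assay of histidyl-tRNA synthetase; the read-out is not stated. Target: Histidine-tRNA ligase, Trypanosoma cruzi CL Brener (UniProt Q4DA54). Tested at 30 µM. The record gives no direction; compounds that gave an IC50 in retests scored well above the rest, so higher reads as stronger inhibition. About 69,000 compounds were tested under these conditions; 0.045% (about 31) showed 50% or more at least once.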
C: 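Lysine-tRNA ligase, Plasmodium falciparum 3D7 (UniProt Q8IDJ8). Enzyme assay of the cytosolic lysyl-tRNA synthetase in 384-well plates, read by luminescence. Compounds at 30 µM. Direction is inferred from only a few compounds that gave an IC50; most scored high, so higher reads as stronger inhibition. Of about 69,000 compounds tested this way, about 49 (0.071%) reached 50% or more in at least one test.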
D: 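Coenzyme A biosynthesis protein CoaBC, Mycobacterium tuberculosis (UniProt P9WNZ1). Enzyme assay of CoaBC with a phosphate dye (Biomol Green) read at 650 nm. Compounds at 30 µM. Direction is inferred from only a few compounds that gave an IC50; most scored high, so higher reads as stronger inhibition. Most strong results did not repeat in a second test. About 67,000 compounds were tested under these conditions; 0.06% (about 40) showed 50% or more at least once.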
E: 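Enzyme assay of the thioesterase domain of polyketide synthase 13; the read-out is not stated. Target: Polyketide synthase Pks13, Mycobacterium tuberculosis (UniProt I6X8D2). Compounds at 30 µM. The record gives no direction; the compounds picked for IC50 retests had high values, so higher reads as stronger inhibition. About 67,000 compounds were tested under these conditions; 0.46% (about 300) showed 50% or more at least once.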
F: 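Cell assay of Leishmania donovani living inside macrophages; the read-out is not stated. Tested at 30 µM. The record gives no direction; compounds that gave an IC50 in retests scored well above the rest, so higher reads as stronger inhibition. Of about 69,000 compounds tested this way, about 1,000 (1.5%) reached 50% or more in at least one test.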

Amino acid sequences for entries named in this document (tags omitted). Residues count along the entry.
UniProt P9WFT3, whole entry: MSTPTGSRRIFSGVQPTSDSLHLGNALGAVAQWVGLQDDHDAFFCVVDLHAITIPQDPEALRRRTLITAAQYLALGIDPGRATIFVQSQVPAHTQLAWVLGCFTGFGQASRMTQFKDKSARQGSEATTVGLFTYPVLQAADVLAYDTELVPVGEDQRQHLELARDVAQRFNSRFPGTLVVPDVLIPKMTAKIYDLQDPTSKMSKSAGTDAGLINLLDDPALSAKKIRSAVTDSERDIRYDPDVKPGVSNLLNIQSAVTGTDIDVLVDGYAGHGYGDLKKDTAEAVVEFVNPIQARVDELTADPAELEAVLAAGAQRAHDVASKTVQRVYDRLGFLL
UniProt Q4DA54, 1-478: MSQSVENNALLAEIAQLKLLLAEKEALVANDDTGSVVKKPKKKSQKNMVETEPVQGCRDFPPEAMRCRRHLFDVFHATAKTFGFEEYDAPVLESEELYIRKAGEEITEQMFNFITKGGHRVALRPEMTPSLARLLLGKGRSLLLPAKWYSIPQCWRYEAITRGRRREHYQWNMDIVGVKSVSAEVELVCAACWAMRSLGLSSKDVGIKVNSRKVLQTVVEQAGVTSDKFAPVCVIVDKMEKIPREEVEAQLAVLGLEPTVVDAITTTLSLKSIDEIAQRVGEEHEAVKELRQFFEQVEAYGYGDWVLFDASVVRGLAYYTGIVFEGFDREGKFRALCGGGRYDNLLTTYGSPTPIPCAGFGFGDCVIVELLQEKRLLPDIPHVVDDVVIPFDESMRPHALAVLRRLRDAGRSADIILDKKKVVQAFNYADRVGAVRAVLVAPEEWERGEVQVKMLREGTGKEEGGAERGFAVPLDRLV
UniProt Q8IDJ8, 1-583: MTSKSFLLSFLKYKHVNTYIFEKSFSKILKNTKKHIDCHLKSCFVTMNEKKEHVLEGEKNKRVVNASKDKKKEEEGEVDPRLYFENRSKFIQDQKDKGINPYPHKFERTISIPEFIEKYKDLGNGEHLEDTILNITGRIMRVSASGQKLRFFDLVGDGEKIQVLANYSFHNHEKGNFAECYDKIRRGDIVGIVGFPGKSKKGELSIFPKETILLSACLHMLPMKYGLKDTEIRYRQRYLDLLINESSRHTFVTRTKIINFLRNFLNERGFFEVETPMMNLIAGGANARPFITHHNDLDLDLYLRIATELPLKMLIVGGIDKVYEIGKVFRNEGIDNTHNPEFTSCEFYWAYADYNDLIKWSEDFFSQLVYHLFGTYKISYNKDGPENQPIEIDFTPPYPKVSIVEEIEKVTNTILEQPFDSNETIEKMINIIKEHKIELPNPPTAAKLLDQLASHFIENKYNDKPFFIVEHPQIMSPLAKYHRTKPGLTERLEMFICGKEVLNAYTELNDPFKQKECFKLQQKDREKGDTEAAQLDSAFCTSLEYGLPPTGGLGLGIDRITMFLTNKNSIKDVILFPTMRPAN
UniProt P9WNZ1, whole entry: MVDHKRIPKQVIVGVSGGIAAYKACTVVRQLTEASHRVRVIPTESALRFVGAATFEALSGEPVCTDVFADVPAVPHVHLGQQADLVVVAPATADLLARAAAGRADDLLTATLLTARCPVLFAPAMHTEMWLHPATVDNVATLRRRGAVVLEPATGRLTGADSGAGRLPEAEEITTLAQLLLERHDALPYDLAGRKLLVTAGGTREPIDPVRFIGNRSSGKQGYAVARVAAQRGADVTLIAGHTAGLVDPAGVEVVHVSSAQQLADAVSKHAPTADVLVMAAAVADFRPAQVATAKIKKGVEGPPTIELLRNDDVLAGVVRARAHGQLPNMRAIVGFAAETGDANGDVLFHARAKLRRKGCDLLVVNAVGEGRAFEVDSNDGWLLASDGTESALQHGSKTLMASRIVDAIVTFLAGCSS
UniProt I6X8D2, whole entry: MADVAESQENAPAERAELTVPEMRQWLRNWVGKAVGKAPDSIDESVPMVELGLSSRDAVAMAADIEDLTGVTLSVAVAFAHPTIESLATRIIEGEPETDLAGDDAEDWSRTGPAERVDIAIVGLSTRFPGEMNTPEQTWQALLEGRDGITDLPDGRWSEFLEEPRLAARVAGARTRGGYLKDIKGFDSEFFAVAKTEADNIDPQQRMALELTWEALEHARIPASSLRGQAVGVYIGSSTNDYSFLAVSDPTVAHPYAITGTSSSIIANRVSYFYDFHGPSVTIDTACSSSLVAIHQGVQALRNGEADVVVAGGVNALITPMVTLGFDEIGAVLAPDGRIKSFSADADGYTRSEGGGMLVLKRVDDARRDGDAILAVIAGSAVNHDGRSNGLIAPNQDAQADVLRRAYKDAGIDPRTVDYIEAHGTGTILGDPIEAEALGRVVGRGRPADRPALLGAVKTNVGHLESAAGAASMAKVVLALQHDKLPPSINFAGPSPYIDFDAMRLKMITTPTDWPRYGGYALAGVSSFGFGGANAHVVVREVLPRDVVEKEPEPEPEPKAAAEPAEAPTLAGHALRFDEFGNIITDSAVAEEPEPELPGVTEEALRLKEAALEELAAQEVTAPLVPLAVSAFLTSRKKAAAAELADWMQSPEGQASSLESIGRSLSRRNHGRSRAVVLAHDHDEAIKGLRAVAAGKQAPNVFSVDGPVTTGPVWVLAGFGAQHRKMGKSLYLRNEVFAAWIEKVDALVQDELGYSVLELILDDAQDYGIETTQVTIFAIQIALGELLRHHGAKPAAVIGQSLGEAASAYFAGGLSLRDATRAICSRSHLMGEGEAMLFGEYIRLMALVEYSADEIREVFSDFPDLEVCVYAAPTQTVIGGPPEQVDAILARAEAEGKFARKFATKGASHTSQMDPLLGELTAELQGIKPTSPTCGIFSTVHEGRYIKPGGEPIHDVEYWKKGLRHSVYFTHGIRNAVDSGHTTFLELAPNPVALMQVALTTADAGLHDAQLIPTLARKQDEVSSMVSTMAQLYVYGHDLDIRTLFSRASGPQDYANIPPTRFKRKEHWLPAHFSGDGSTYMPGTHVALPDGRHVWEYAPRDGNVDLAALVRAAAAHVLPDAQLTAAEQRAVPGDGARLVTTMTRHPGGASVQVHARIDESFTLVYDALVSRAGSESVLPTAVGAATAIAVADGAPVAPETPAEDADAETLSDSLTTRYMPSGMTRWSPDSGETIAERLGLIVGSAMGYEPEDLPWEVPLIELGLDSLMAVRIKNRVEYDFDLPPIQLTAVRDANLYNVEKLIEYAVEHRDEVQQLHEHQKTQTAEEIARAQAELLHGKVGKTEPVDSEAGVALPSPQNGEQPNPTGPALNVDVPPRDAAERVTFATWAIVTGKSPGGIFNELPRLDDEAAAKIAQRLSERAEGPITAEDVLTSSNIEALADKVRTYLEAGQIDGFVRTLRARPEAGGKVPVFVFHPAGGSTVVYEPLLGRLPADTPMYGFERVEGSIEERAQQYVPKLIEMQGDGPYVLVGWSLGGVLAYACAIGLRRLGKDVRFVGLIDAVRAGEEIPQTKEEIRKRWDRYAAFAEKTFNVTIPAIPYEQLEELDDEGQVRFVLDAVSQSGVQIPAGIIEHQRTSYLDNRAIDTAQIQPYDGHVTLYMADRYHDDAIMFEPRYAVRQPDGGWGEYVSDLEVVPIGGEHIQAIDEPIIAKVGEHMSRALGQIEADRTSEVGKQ

Results are given as percent effect.
The record does not define 0% and 100%; most values in the screen are far below 50% and negative numbers occur (in some assays of this library far below -100).
The compounds are a random part of those screened.
A dash means the value is not listed here; it may have been measured.

compound,A,B,C,D,E,F
CS(=O)(=O)NCC1CCCN(C(=O)c2cc3ccccc3o2)C1 (configuration not stated),4.182,0.3802,0.4918,4.216,-5.682,23.04
CCCN1CCN(Cc2cccc(OC(C)C)c2)[C@H]2CS(=O)(=O)C[C@H]21,-1.183,5.366,2.805,-1.38,-8.542,-
Cc1cc(C(=O)N2CCc3nnc(N)cc3C2)c(C)n1-c1ccccc1,-3.323,18.59,0.4373,-1.654,-5.688,-9.315
Cn1ccnc1CN1CCC2(CC1)CCN(c1cncnc1)C2=O,-4.473,1.02,1.59,4.574,-2.561,-
CN(C)c1ccc(CNC(=O)Nc2ccc(S(C)(=O)=O)nc2)cc1,-1.471,2.639,1.211,1.579,-6.649,13.35
COCCn1nc(C(=O)N(C)Cc2ccc3ccccc3c2)ccc1=O,4.064,7.035,5.289,9.855,-4.218,-14.66
Cn1ccc(C(=O)N2CCCC2c2cc[nH]n2)n1 (configuration not stated),9.987,3.39,0.04889,-31.48,-1.993,8.827
[H][C@@]12CCN(C(=O)CC3Cc4ccccc4C3)C[C@]1([H])OCCNC2=O,-,-,-,-,-,36.86
CCOc1ccc(CN2CCCC(c3cc4ncccc4[nH]3)C2)cc1 (configuration not stated),0.5208,5.747,1.125,6.22,-7.438,54.07
CC(CNC(=O)CCc1ccccn1)c1ccsc1 (configuration not stated),-1.729,6.024,4.921,2.97,-18.08,21.66
NC(=O)c1cccc(NC(=O)CSc2ccc3c(c2)CCC3)c1,2.414,-3.448,4.041,-9.127,-15.29,10.48
CN(Cc1ccsc1)C(=O)c1nc(N2CCCC2)ncc1Cl,4.285,6.667,6.635,7.299,4.506,20.2
CCOc1ccc(C(=O)CCC(=O)N(C)Cc2cnccn2)cc1C,-3.922,3.867,1.503,8.738,-4.899,-39.75
CCCSc1ncc(-c2nccn2CCC(N)=O)cn1,0.4515,1.961,2.954,-1.951,-3.301,10.2
Cc1csc(CNC(=O)N(C)Cc2ccc3c(c2)OCCO3)n1,1.221,4.202,15.19,-0.216,-11.98,-4.098
Cn1ccnc1CN1CC[C@@H](NS(C)(=O)=O)[C@@H]1Cc1ccccc1.O=C(O)C(F)(F)F,-,-,-,-,-,38.09
COc1cc(CNCc2c(C)nn(C)c2N(C)C)ccc1C,-1.33,4.511,-0.1445,2.728,-9.913,12.91
Cc1cc(NC(=O)CNC2CCc3ncnn3C2)on1 (configuration not stated),1.699,8.808,10.47,-8.073,-16.81,49.96
Cc1ccccc1C(=O)N1CCO[C@H]2[C@H](OCCN(C)C)CC[C@@H]21,-5.354,4.673,4.283,-8.395,-9.407,-
CNc1cc(C(=O)N2CCCCC2CCn2ccnc2C)ccn1 (configuration not stated),-4.931,8.939,5.027,2.314,-10.81,0.632
CC(C)(CNC(=O)Nc1cccc(-c2cccs2)c1)C(N)=O,1.636,4.865,2.303,14.55,-17.29,14.91
CC(CN1CCOCC1)n1cncc1-c1ccc2c(c1)CCCN2C.Cl (configuration not stated),-,-,-,-,-,25.44
Cn1cc(C(=O)Nc2cccc(F)c2)ccc1=O,-2.676,1.587,3.109,12.22,-14.67,19.09
COc1ccc(F)c(-c2cc(C)nc(N)n2)c1,-20.49,1.622,0.3307,2.137,-41.99,-8.609
Cn1cc(CN2CCO[C@H]3CN(Cc4ccco4)C[C@H]32)cn1,-5.692,7.609,6.789,4.206,-,-
COc1ccccc1OCC(=O)NCC(O)(c1ccccc1)C1CC1 (configuration not stated),-2.495,1.653,-0.4753,11.3,-18.31,18.72
COc1ccc(S(=O)(=O)NCC(N)c2ccccc2)c(C)c1 (configuration not stated),-8.622,7.937,5.982,-24.85,-3.356,-
CO[C@H]1CN(C(C)C)C[C@@H]1NC(=O)c1cc(-c2ccccc2F)n[nH]1,-2.918,12.04,3.266,-2.675,-12.65,12
CCOC1COC2(CCN(Cc3ccc(F)cc3)CC2)C1.O=C(O)C(F)(F)F (configuration not stated),-,-,-,-,-,8.975
CSCC(CCO)NC(=O)Nc1ccc(Br)cc1 (configuration not stated),3.943,4.878,2.412,1.392,-9.456,37.44
Cn1c(C(F)(F)F)nn(CCNC(=O)c2cnc3ccccc3n2)c1=O,2.495,3.306,-2.005,7.889,-5.703,6.265
CN(C)C(=O)CCS(=O)(=O)Cc1ccn(-c2cccc(F)c2)n1,-2.882,4.433,7.539,3.481,-21.75,8.356
CCC(CN1CCCCC1)NC(=O)C1(c2cccc(F)c2)CC1.O=C(O)CC(O)(CC(=O)O)C(=O)O (configuration not stated),-,-,-,-,-,41.86
CC(=O)N1CCN(C(C)c2ccc(Br)cc2)CC1 (configuration not stated),4.417,-2.591,3.117,4.377,2.922,-1.936
CNC(=O)c1cccc(C2CNCCN2C)c1 (configuration not stated),-4.097,7.027,0.3674,-1.944,35.36,-2.241
Cc1noc(C)c1CN(C)C(=O)c1ccc(C(F)(F)F)nc1,-8.164,3.39,1.268,0.2611,-9.05,37.58
CCCc1nnsc1C(=O)NCC(O)c1ccoc1 (configuration not stated),0.75,4.663,3.39,-2.357,3.465,-7.837
CC(=O)N1CCN(Cc2ccc(Cl)c(F)c2)CC(O)C1 (configuration not stated),-5.789,-13.53,-4.33,-2.36,-1.074,-18.22
[H][C@@]12C[C@H](C(=O)NC3CC3)CN(Cc3ccco3)[C@]1([H])CCO2,-,-,-,-,-,-0.8798
O=C(NCCCN1CCCC1=O)c1nc(-c2ccc3cc[nH]c3c2)no1,-0.2101,-0.5848,3.637,4.545,-1.421,11.65
CSCc1cccc(S(=O)(=O)N2CCCCC2)c1,3.368,0.8696,2.485,-5.312,-5.08,14.25
O=C(O)C(F)(F)F.O=C(O)C(F)(F)F.[H][C@@]12COC[C@@H](N3CCCC3)[C@]1([H])CN(Cc1ccc3c(c1)OCO3)C2,-,-,-,-,-,28.63
Cc1cc(C)n(CC2CCCN2C(=O)c2ccc3c(c2)OCCO3)n1 (configuration not stated),-0.136,10.98,1.542,2.658,-7.378,-11.22
Clc1ccccc1CN1CCCC(c2nnc(-c3cnccn3)o2)C1 (configuration not stated),-,5.243,2.442,4.585,-5.626,5.749
Cc1csc2c(C3CCCN(C(=O)CCn4cncn4)C3)nc(C)n12 (configuration not stated),-1.339,4.215,-3.231,-3.398,6.002,22.92
Cc1cccc(CN2CCc3nnc(CN4CCCC4=O)n3CC2)n1.O=C(O)C(F)(F)F,-,-,-,-,-,6.735
CN1CCC2(COCCN(Cc3cccc(C#N)c3)C2)C1 (configuration not stated),0.9166,5.882,5.351,-11.54,7.581,-
Cc1nc(N(C)C)ncc1C(=O)NCCc1csc(-c2ccncc2)n1,3.011,4.202,16.78,4.968,23.68,18.04
CNc1nc(CNC(=O)Nc2cc(Cl)ccc2F)cs1,-7.847,8.284,0.379,2.915,-10.44,13.61
O=C(CCC1CCCN(S(=O)(=O)C2CC2)C1)Nc1ccc(Cl)cc1 (configuration not stated),1.653,5.844,1.574,4.716,-23.1,19.12
CCC(=O)NC1CCCN(C(=O)Nc2cccc(COC(C)C)c2)C1 (configuration not stated),-2.386,5.172,5.335,5.697,8.687,2.486

Data taken from ChEMBL document CHEMBL3988442, “University of Dundee, Small-Polar-MMV Screening Library” (2021).